This is an account of results in PMC6938641.

Amino acid sequences for entries named in this document (tags omitted).
UniProt P10415: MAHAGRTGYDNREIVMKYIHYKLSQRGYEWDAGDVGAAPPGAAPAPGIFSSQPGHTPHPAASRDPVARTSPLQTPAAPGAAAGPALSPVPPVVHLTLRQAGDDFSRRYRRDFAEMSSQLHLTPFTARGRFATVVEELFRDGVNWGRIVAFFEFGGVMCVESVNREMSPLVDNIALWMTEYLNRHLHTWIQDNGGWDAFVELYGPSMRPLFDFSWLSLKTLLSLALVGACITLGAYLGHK
UniProt Q07812: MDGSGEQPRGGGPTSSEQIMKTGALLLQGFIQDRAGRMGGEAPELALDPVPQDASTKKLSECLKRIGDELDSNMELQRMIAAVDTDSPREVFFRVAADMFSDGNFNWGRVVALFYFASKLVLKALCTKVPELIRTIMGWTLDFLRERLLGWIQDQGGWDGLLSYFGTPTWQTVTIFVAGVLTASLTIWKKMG

No constants are given. Whether binding was seen depends on the method and setting. Binding seen in cells or lysates may run through a third protein. Some entries that bind do so weakly or less than the wild type.

The test has as its target Bcl-2 (human (endogenous in OCI-ly8)) (UniProt P10415). Kind of test: co-IP; as a1, the sample of OCI-ly8 cells treated with 2 uM BM-1197 for 6 h; IP with anti-Bcl-2 antibody, western blot. Background: A western blot detects proteins with antibodies after separation by electrophoresis.

Bax (from UniProt Q07812 1-192): the binding result was “binds weakly”.
